Data from the primary screen of doi:10.1371/journal.pone.0140310, rounded.

First drug in all entries: pioglitazone, 10 µM, CCc1ccc(CCOc2ccc(CC3SC(=O)NC3=O)cc2)nc1 (centres unmarked)

Drugs:
PD173074 (0.5 µM): CCN(CC)CCCCNc1ncc2cc(-c3cc(OC)cc(OC)c3)c(NC(=O)NC(C)(C)C)nc2n1
STA-4783 (0.03 µM): CN(NC(=O)CC(=O)NN(C)C(=S)c1ccccc1)C(=S)c1ccccc1
etoposide (0.1 µM): COc1cc([C@@H]2c3cc4c(cc3[C@@H](O[C@@H]3O[C@@H]5CO[C@@H](C)O[C@H]5[C@H](O)[C@H]3O)[C@H]3COC(=O)[C@H]23)OCO4)cc(OC)c1O
bexarotene (10 µM): C=C(c1ccc(C(=O)O)cc1)c1cc2c(cc1C)C(C)(C)CCC2(C)C
VX-702 (2 µM): NC(=O)c1ccc(N(C(N)=O)c2c(F)cccc2F)nc1-c1ccc(F)cc1F
indole-3-carbinol (4 µM): OCc1c[nH]c2ccccc12
FH535 (5 µM): Cc1cc([N+](=O)[O-])ccc1NS(=O)(=O)c1cc(Cl)ccc1Cl
CHIR-265 (0.4 µM): Cn1c(Nc2ccc(C(F)(F)F)cc2)nc2cc(Oc3ccnc(-c4ncc(C(F)(F)F)[nH]4)c3)ccc21
tipifarnib (0.05 µM): Cn1cncc1[C@@](N)(c1ccc(Cl)cc1)c1ccc2c(c1)c(-c1cccc(Cl)c1)cc(=O)n2C
MK-1775 (0.1 µM): C=CCn1c(=O)c2cnc(Nc3ccc(N4CCN(C)CC4)cc3)nc2n1-c1cccc(C(C)(C)O)n1
L-779450 (1 µM): Oc1cc(-c2nc(-c3ccccc3)[nH]c2-c2ccncc2)ccc1Cl
SNS-314 (0.004 µM): O=C(Nc1cccc(Cl)c1)Nc1ncc(CCNc2ncnc3ccsc23)s1
GSK650394 (0.8 µM): O=C(O)c1ccc(-c2c[nH]c3ncc(-c4ccccc4)cc23)cc1C1CCCC1
vincristine (0.0005 µM): CC[C@]1(O)C[C@H]2CN(CCc3c([nH]c4ccccc34)[C@@](C(=O)OC)(c3cc4c(cc3OC)N(C=O)[C@H]3[C@@](O)(C(=O)OC)[C@H](OC(C)=O)[C@]5(CC)C=CCN6CC[C@]43[C@@H]65)C2)C1
fingolimod (10 µM): CCCCCCCCc1ccc(CCC(N)(CO)CO)cc1
decitabine (0.5 µM): Nc1ncn([C@H]2C[C@H](O)[C@@H](CO)O2)c(=O)n1
vismodegib (5 µM): CS(=O)(=O)c1ccc(C(=O)Nc2ccc(Cl)c(-c3ccccn3)c2)c(Cl)c1
embelin (6 µM): CCCCCCCCCCCC1=C(O)C(=O)C=C(O)C1=O
AS-252424 (5 µM): O=C1NC(=O)/C(=C/c2ccc(-c3ccc(F)cc3O)o2)S1
BI-78D3 (1 µM): O=c1[nH]nc(Sc2ncc([N+](=O)[O-])s2)n1-c1ccc2c(c1)OCCO2
GW0742 (10 µM): Cc1cc(SCc2sc(-c3ccc(C(F)(F)F)c(F)c3)nc2C)ccc1OCC(=O)O
vatalanib (10 µM): Clc1ccc(Nc2nnc(Cc3ccncc3)c3ccccc23)cc1
ruxolitinib (5 µM): N#CC[C@H](C1CCCC1)n1cc(-c2ncnc3[nH]ccc23)cn1
nilotinib (1 µM): Cc1cn(-c2cc(NC(=O)c3ccc(C)c(Nc4nccc(-c5cccnc5)n4)c3)cc(C(F)(F)F)c2)cn1
temozolomide (10 µM): Cn1nnc2c(C(N)=O)ncn2c1=O
docetaxel (0.0005 µM): CC(=O)O[C@@]12CO[C@@H]1C[C@H](O)[C@@]1(C)C(=O)[C@H](O)C3=C(C)[C@@H](OC(=O)[C@H](O)[C@@H](NC(=O)OC(C)(C)C)c4ccccc4)C[C@@](O)([C@@H](OC(=O)c4ccccc4)[C@H]21)C3(C)C
GW441756 (2 µM): Cn1cc(/C=C2\C(=O)Nc3cccnc32)c2ccccc21
NVP-TAE684 (0.4 µM): COc1cc(N2CCC(N3CCN(C)CC3)CC2)ccc1Nc1ncc(Cl)c(Nc2ccccc2S(=O)(=O)C(C)C)n1
crizotinib (1 µM): C[C@@H](Oc1cc(-c2cnn(C3CCNCC3)c2)cnc1N)c1c(Cl)ccc(F)c1Cl
BMS-536924 (1 µM): Cc1cc(N2CCOCC2)cc2[nH]c(-c3c(NC[C@@H](O)c4cccc(Cl)c4)cc[nH]c3=O)nc12
tamatinib (2 µM): COc1cc(Nc2ncc(F)c(Nc3ccc4c(n3)NC(=O)C(C)(C)O4)n2)cc(OC)c1OC

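The test systems are human melanoma cell lines, treated with a pair of drugs for 72 h and then stained and imaged. The read-out is the fraction of cleaved-PARP-positive nuclei, in % of that fraction in the DMSO control; 200 means twice the control level of this apoptosis marker. Every drug was used at one fixed concentration, the higher of two screened. No replicate spread is given; individual values may be noisy. Basal and induced levels differ widely between cell lines.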 An unselected part of the screen is shown. A dash means that no value is listed here.

| # | Second drug | WM3526 | COLO 800 | 501mel | IPC-298 | COLO 829 | SK-MEL-28 | RVH-421 | LB2518-MEL | MZ2-MEL | RPMI-7951 |
|---|---|---|---|---|---|---|---|---|---|---|---|
| 1 | ruxolitinib | 79.8 | 147 | 42.0 | 87.8 | 65.7 | 310 | 63.5 | 59.3 | 141 | 82.5 |
| 2 | embelin | 34.1 | 87.0 | 88.0 | 131 | 60.1 | 154 | 52.9 | 86.0 | 125 | 81.6 |
| 3 | vincristine | 1430 | 341 | 268 | 215 | 360 | 240 | 194 | 193 | 850 | 361 |
| 4 | STA-4783 | 93.0 | 99.0 | 678 | 107 | 167 | 94.0 | 262 | 183 | 75.4 | 108 |
| 5 | vismodegib | 77.4 | 137 | 44.6 | 92.7 | 44.8 | 113 | 106 | 87.9 | 122 | 205 |
| 6 | docetaxel | 803 | 235 | 225 | 245 | 234 | 1150 | 135 | 117 | 410 | 348 |
| 7 | decitabine | 46.6 | 122 | 32.9 | 137 | 191 | 159 | 153 | 130 | 55.5 | 166 |
| 8 | vatalanib | 126 | 367 | 210 | 57.8 | 48.3 | 73.3 | 205 | 104 | 165 | 161 |
| 9 | CHIR-265 | 541 | 98.3 | 454 | 93.2 | 66.5 | 320 | 204 | 262 | 221 | 63.9 |
| 10 | temozolomide | 107 | 327 | 216 | 66.6 | 25.3 | 131 | 185 | 33.4 | 17.2 | 639 |
| 11 | GW0742 | 75.9 | 160 | 473 | 144 | 48.3 | 103 | 285 | 78.6 | 77.8 | 185 |
| 12 | GSK650394 | 72.3 | 153 | 71.3 | 82.6 | 62.6 | 48.2 | 49.4 | 70.8 | 174 | 194 |
| 13 | crizotinib | 98.8 | 85.0 | 65.1 | 176 | 127 | 64.6 | 61.1 | 102 | 123 | 66.2 |
| 14 | indole-3-carbinol | 67.7 | 77.7 | 92.5 | 42.4 | 84.3 | 66.0 | 114 | 47.8 | 65.9 | 201 |
| 15 | BI-78D3 | 125 | 110 | 45.8 | 41.9 | 147 | 42.9 | 178 | 115 | 101 | 101 |
| 16 | L-779450 | 163 | 406 | 337 | 107 | 203 | 125 | 167 | 75.4 | 40.8 | 141 |
| 17 | MK-1775 | 113 | 93.8 | 199 | 99.5 | 126 | 268 | 115 | 99.2 | 46.0 | 93.8 |
| 18 | tipifarnib | 123 | 80.3 | 123 | 35.7 | 79.5 | 172 | 202 | 79.2 | 71.0 | 57.4 |
| 19 | BMS-536924 | 69.6 | 196 | 80.0 | 26.4 | 49.8 | 95.5 | 46.5 | 171 | 190 | 116 |
| 20 | bexarotene | 93.9 | 22.8 | 69.5 | 52.2 | 79.0 | 62.7 | 43.8 | 50.0 | 258 | 160 |
| 21 | GW441756 | 50.8 | 109 | 164 | 98.8 | 180 | 139 | 64.9 | 75.3 | 48.1 | 112 |
| 22 | tamatinib | 191 | 201 | 124 | 119 | 98.9 | 215 | 207 | 80.0 | 118 | 216 |
| 23 | VX-702 | 80.0 | 72.2 | - | 83.4 | 258 | 102 | 69.4 | - | - | 81.7 |
| 24 | PD173074 | 106 | 385 | 98.4 | 251 | 43.7 | 39.5 | 135 | 147 | 33.7 | 139 |
| 25 | NVP-TAE684 | 65.4 | 410 | 124 | 42.2 | 246 | 286 | 112 | 125 | 52.3 | 66.5 |
| 26 | nilotinib | 80.9 | 58.1 | - | 177 | 79.9 | 238 | 51.9 | - | - | 135 |
| 27 | fingolimod | 2200 | 616 | 4410 | 546 | 171 | 5620 | 720 | 26800 | 3080 | 1450 |
| 28 | AS-252424 | 115 | 44.8 | 148 | 70.4 | 172 | 94.0 | 81.4 | 76.5 | 128 | 62.8 |
| 29 | FH535 | 140 | 46.5 | 54.6 | 121 | 67.9 | 52.3 | 151 | 77.0 | 173 | 31.6 |
| 30 | etoposide | 67.8 | 223 | 44.5 | 164 | 131 | 116 | 39.1 | 76.9 | 282 | 110 |
| 31 | SNS-314 | 87.5 | 322 | 78.4 | 68.6 | 153 | 164 | 98.5 | 172 | 78.9 | 305 |

Some entries from above, unchanged:

| Second drug | WM3526 | COLO 800 | 501mel | IPC-298 | COLO 829 | SK-MEL-28 | RVH-421 | LB2518-MEL | MZ2-MEL | RPMI-7951 |
|---|---|---|---|---|---|---|---|---|---|---|
| BMS-536924 | 69.6 | 196 | 80.0 | 26.4 | 49.8 | 95.5 | 46.5 | 171 | 190 | 116 |
| L-779450 | 163 | 406 | 337 | 107 | 203 | 125 | 167 | 75.4 | 40.8 | 141 |